Results taken from PMC8840716.
Results are given in words; binding and its absence hold for the method and conditions named. For part of these data: In cells and extracts the contact can be indirect. Some binding calls cover weakened binding; strength is not graded here.

Sequences of proteins named here, by UniProt entry; tags and fusion partners are left off. A change or cut given only in a name is not applied to a line headed by its entry. Residues count along the entry.
UniProt Q6X5Y6: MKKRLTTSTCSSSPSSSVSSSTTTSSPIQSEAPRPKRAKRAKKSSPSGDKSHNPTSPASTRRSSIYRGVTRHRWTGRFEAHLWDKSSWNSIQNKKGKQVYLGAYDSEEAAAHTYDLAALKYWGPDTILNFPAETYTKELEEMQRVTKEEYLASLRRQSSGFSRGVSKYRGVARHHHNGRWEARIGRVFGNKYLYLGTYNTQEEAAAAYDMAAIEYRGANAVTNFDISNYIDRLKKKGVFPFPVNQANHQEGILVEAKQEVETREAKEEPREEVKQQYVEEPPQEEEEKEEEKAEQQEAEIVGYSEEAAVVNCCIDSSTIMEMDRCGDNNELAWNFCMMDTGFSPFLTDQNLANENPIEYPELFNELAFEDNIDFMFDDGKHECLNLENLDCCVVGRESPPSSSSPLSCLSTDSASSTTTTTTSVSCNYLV
AtWRI1^1-306 (DNA binding domain fusion, yeast two-hybrid bait): residues 1-306 of Q6X5Y6
AtWRI1^58-240 (DNA binding domain fusion, yeast two-hybrid bait): residues 58-240 of Q6X5Y6
UniProt Q9LSD5: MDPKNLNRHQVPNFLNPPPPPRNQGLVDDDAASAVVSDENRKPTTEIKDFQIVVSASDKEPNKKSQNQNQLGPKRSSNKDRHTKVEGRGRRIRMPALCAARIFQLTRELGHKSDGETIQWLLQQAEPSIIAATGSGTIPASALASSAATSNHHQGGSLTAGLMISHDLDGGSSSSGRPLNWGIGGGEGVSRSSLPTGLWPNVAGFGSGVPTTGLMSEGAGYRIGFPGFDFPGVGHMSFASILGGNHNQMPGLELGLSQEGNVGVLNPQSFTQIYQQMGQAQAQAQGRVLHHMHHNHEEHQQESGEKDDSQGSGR

What was measured:
[1] = molecular target: AtWRI1^58-240 (DNA binding domain fusion, yeast two-hybrid bait) (Arabidopsis) (UniProt Q6X5Y6); assay: two-hybrid; BD-AtWRI1 variants (pDEST32, yeast AH109) as bait, AD-TCP20 (pDEST22, yeast Y187) as prey; mated, plated on -Leu/-Trp, streaked onto stringent selective -Leu/-Trp/-His medium; library screen and direct test
[2] = molecular target: AtWRI1^1-306 (DNA binding domain fusion, yeast two-hybrid bait) (Arabidopsis) (UniProt Q6X5Y6); assay: as above
[3] = molecular target: nYFP-AtWRI1 (Arabidopsis) (UniProt Q6X5Y6); assay: split reporter; BiFC: nYFP and cYFP fusions co-produced in N. benthamiana leaves by agroinfiltration (with P19); YFP fluorescence by confocal microscopy 2-3 days after infiltration

binding [1]	binding [2]	binding [3]	Substance
binds	binds	–	activation domain (AD)-TCP20 fusion (yeast two-hybrid prey) (from UniProt Q9LSD5 1-314)
–	–	binds	cYFP-TCP20 (from UniProt Q9LSD5 1-314)
